Among the data in patent US6429286B1, “Immunoregulatory molecules for costimulatory signal transduction” (priority 1997, dated 2002) are binding values, retold here.

In the assay the target is human CD80-Ig (human) (UniProt P33681+P01857). The assay can be described thus: ELISA, F2 phage coated, human CD80-Ig in solution, as in Example 7. For orientation: An ELISA detects its analyte on a solid surface through an enzyme-linked reagent.

These are yes or no findings as the source states them, for the method shown. Some results given as binding are weak or reduced against the parent protein; the word gives no strength.

B1: phage expressing F2 sequence (peptide)
chain: ADGAGFVCSGIFAVGVGRCGAAGAETVESCLAKPHTENSFTNVWKDDKTLDRYANYEGCLWNATGVVVCTGDETQCYGTWVPIGLAIPENEGGGSEGGGSEGGGSEGGGTKPPEYGDTPIPGYTYINPLDGTYPPGTEQNPANPNPSLEESQPLNTFMFQNNRFRNRQGALTVYTGTVTQGTDPVKTYYQYTPVSSKAMYDAYWNGKFRDCAFHSGFNEDPFVCEYQGQSSDLPQPPVNAGGGSGGGSGGGSEGGGSEGGGSEGGGSEGGGSGGGSGSGDFDYEKMANANKGAMTENADENALQSDAKGKLDSVATDYGAAIDGFIGDVSGLANGNGATGDFAGSNSQMAQVGDGDNSPLMNNFRQYLPSLPQSVECRPYVFGAGKPYEFSIDCDKINLFRGVFAFLLYVATFMYVFSTFANILRNKES
notes: also called F2 phage
In the case of B1, the binding entry is recorded as “binds”.
